No constants are given. Whether binding was seen depends on the method and setting. Binding calls can cover weak binding; strength is not graded here. Tags and fused reporters may be left off the sequences shown.
How the values were obtained:
[1] = molecular target: BMP type IB receptor (BMPR-IB), wild type; assay: affinity cross-linking and immunoprecipitation
[2] = molecular target: BMP type IB receptor (BMPR-IB), wild type; assay: affinity cross-linking with 125I-OP-1/BMP-7, immunoprecipitation, autoradiography
[3] = molecular target: BMP type IB receptor (BMPR-IB), kinase-defective; assay: as above

Measured: binding

B1: FLAG-tagged Smad6 (protein, not shown: small tags and cut ends)
chain: MFRSKRSGLVRRLWRSRVVPDREEGSGGGGGVDEDGSLGSRAEPAPRAREGGGCSRSEVRSVAPRRPRDAVGPRGAAIAGRRRRTGGLPRPVSESGAGAGGSPLDVAEPGGPGWLPESDCETVTCCLFSERDAAGAPRDSGDPQARQSPEPEEGGGPRSREARSRLLLLEQELKTVTYSLLKRLKERSLDTLLEAVESRGGVPGGCVLVPRADLRLGGQPAPPQLLLGRLFRWPDLQHAVELKPLCGCHSFTAAADGPTVCCNPYHFSRLCGPESPPPPYSRLSPPDQYKPLDLSDSTLSYTETEATNSLITAPGEFSDASMSPDATKPSHWCSVAYWEHRTRVGRLYAVYDQAVSIFYDLPQGSGFCLGQLNLEQRSESVRRTRSKIGFGILLSKEPDGVWAYNRGEHPIFVNSPTLDAPGGRALVVRKVPPGYSIKVFDFERSGLLQHADAAHGPYDPHSVRISFAKGWGPCYSRQFITSCPCWLEILLNNHR
binds: all assays above
